# Primary screen of a compound library

Amino acid sequences for entries named in this document (tags omitted).
UniProt E9BF75, entry or part of it: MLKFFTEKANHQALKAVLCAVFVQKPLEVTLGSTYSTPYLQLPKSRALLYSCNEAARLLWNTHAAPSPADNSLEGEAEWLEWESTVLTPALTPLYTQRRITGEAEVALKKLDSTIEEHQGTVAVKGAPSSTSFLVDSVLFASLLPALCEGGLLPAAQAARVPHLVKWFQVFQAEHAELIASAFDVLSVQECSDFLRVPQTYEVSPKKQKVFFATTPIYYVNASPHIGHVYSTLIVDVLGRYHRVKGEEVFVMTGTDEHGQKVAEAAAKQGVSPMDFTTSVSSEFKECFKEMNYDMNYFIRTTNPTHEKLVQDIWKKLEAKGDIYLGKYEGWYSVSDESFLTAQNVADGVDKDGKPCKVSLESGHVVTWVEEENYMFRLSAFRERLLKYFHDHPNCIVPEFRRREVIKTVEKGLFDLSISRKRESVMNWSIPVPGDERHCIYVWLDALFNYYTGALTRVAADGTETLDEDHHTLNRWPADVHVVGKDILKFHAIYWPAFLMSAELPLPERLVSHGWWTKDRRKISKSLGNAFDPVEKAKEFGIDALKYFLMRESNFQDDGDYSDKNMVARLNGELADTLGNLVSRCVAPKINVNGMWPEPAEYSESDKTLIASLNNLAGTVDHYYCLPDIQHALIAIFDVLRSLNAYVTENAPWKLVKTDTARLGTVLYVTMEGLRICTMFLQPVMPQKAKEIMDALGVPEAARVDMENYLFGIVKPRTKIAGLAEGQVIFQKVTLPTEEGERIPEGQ

Data taken from ChEMBL document CHEMBL3988442, “University of Dundee, Small-Polar-MMV Screening Library” (2021).

A: 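Methionyl-tRNA synthetase (putative), Leishmania donovani (UniProt E9BF75). Primary screen of methionyl-tRNA synthetase; the read-out is not stated. The test concentration is not given. The values are filed as inhibition. Size under these conditions: about 68,000 compounds, about 24 of them at 50% or above in at least one test.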
B: 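Assay on Mycobacterium tuberculosis, filed only as a heat shock assay from Cornell; the read-out is not stated. The concentration is filed as 10 mM, unlikely as a test dose, so the dose is not known. The record gives no direction; compounds that gave an IC50 in retests scored well above the rest, so higher reads as stronger inhibition. Of about 69,000 compounds tested this way, about 930 (1.4%) reached 50% or more in at least one test.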

All values are in %. The controls that fix the scale are not given in the record; negative values are as filed. The compounds are a random part of those screened. A dash means the value is not listed here; it may have been measured.

structure	A	B
COc1cccc(-n2nc(C(C)=O)c(C(C)=O)c2C)c1	12.33%	-6.014%
COc1ccc(Oc2ncccc2NC(=O)N2CCOCC2C)cc1 (stereo unspecified)	12.73%	7.733%
Cc1nc(C)c(C(C)NC(=O)NCCNc2cccc(F)c2C#N)s1 (stereo unspecified)	10.53%	-5.938%
CC(C)N1CCc2[nH]nc(C(=O)N3CCOCC3)c2C1	8.333%	-
NC(=O)Cn1cc(NC(=O)N2CCCC2)cn1	5.521%	10.77%
COCCCNC(=O)NCc1ccc(C)cc1	15.97%	6.118%
CC(=O)N1CC[C@H]2OCC[C@@]2(C(=O)NCCc2ccccn2)C1	1.681%	-
Cc1noc(C)c1C(=O)N(C)C(C)c1cccnc1 (stereo unspecified)	13.68%	4.322%
CCc1cc2c(N3CCCC(c4ccn[nH]4)C3)ncnc2s1 (stereo unspecified)	9.747%	-26.84%
CN(C)CC(=O)N1CC2(CCN(C(=O)Nc3ccccc3)C2)C1	8.403%	-
CC(CNC(=O)c1ccc(=O)[nH]n1)N1CCc2ccccc21 (stereo unspecified)	23.5%	-26.38%
C=C(C)CN(CC)S(=O)(=O)c1ccccc1C#N	4.485%	-21.52%
N#Cc1ccccc1OCCN1CCn2c(nnc2C2CC2)C1	9.091%	-4.383%
COCCNC(=O)NC1(c2nc(-c3ccncc3)no2)CCCCC1	4.317%	-12.36%
Cc1cccc(OCC(O)CN2CCN(c3nccs3)CC2)c1 (stereo unspecified)	13.26%	-15.46%
CCCOC1CCCN(C(=O)c2ccnnc2)C1 (stereo unspecified)	5.59%	-5.496%
CCN(CC)c1nc(O)cc(C(C)n2ncc3ccccc3c2=O)n1 (stereo unspecified)	18.07%	-20.21%
Cc1cnccc1CN1C[C@@H](O)[C@H](Oc2cccc(F)c2)C1	3.767%	14.68%
Cc1cc(C[S+]([O-])CC(=O)NCc2ccccc2)no1 (stereo unspecified)	14.53%	-7.673%
O=C(NCCn1ccnc1)c1cccc(Br)c1	10.28%	24.48%
Cc1ccc(CN(C)C(=O)CNC(C)(C)c2noc(C(C)(C)C)n2)o1	1.905%	7.898%
Oc1cc(C2CCCCN2C2CCCC2)nc(-c2ccncc2)n1 (stereo unspecified)	13.3%	-2.5%
O=C(c1cnccn1)N1CCc2onc(CN3CCOCC3)c2C1	3.704%	-4.086%
Cc1ccc(CN2CCn3cc(CN(C)Cc4ccco4)nc3C2)o1.O=C(O)C(F)(F)F.O=C(O)C(F)(F)F	-	-14.09%
Cc1ncc2c(n1)CN(CC(=O)Nc1nnc(C)s1)CC2	8.659%	-7.35%
Cc1ncsc1C(=O)NC1CCN(CC(=O)N(C)C(C)(C)C#N)CC1	7.874%	-1.314%
Cc1cccc(OCCSCCn2nc3ccccn3c2=O)c1	16.62%	-22.66%
Cc1nc(CN2CCc3ncnc(C)c3CC2)cs1	11.78%	-
O=S(=O)(CCCN1CCc2c(ncn2C2CC2)C1)c1ccccc1	7.692%	-9.38%
COc1ccc(C(=O)N2CCCC2c2noc(C(C)C)n2)nn1 (stereo unspecified)	14.92%	5.959%
CN1CCN(C(=O)c2cccc(S(=O)(=O)NCC3(C)COC3)c2)CC1	8.71%	12.91%
CCn1ncnc1CN1CCc2[nH]cnc2C1c1ccccn1 (stereo unspecified)	7.013%	-8.162%
CC(O)CN1CCc2onc(C(c3ccccc3)c3ccccc3)c2C1 (stereo unspecified)	6.849%	-20.52%
[H][C@@]12COC[C@@H](C(=O)N3CCOCC3)[C@]1([H])CN(CC1CCCC1)C2	-	5.894%
CS(=O)(=O)NCC1CCCCN1Cc1cccc(C#N)c1 (stereo unspecified)	5.944%	-19.23%
Cc1cnc(CN2CCN(c3nc(C)cs3)C(C)C2)cn1 (stereo unspecified)	17.46%	-6.176%
O=C1CN(CC[C@@H](O)c2ccccc2)CCN1c1ccccc1Cl	3.2%	2.413%
CS(=O)(=O)CCNCc1ccc(OCc2cscn2)cc1	16.43%	-2.969%
COCCCN1CCC(N(Cc2noc(C)n2)C(C)=O)C1 (stereo unspecified)	12.57%	5.496%
Cc1nc(C2CCCN2C(=O)COCCOc2ccccc2)no1 (stereo unspecified)	2.406%	-29.61%
CN(C)C(=O)N1Cc2ncn(C)c2C(COCC2CCOCC2)C1 (stereo unspecified)	11.11%	-
Cc1cc(CN2CCCC2c2noc(C)n2)no1 (stereo unspecified)	6.993%	-3.881%
CN(C)C(=O)[C@H]1CCS(=O)(=O)[C@@H]2CN(c3ncccn3)C[C@H]12	16.42%	-
O=C(c1cnco1)N1CCCC(Cc2nccs2)C1 (stereo unspecified)	20.63%	-3.72%
O=C(c1nc2c(s1)CCCN2C(=O)C1CC1)N1CCCC1	12.11%	-15%
Cc1ccc(CN(C(=O)C(C)NC(N)=O)C2CC2)cc1C (stereo unspecified)	6.028%	-1.689%
CC(Cn1ccnc1)NC(=O)NCCc1cccs1 (stereo unspecified)	12.63%	8.126%
CNc1nc(C2CCCN2)nc2c1CCN(S(=O)(=O)C1CCCCC1)C2 (stereo unspecified)	-2.1%	-
CSC1(CNc2ncc(Br)cn2)CCOCC1	7.258%	6.953%
CC(=O)N1CC(c2ccnc(Nc3ccc(C)cn3)n2)C1	9.003%	-8.217%
O=C(C1CCCC1)N1CC2(CCN(C3COC3)CC2)Cc2ccccc21	9.143%	-63.16%
CC1CCC(NC(=O)CNC2(c3ccc(Br)cc3)CCOCC2)CC1 (stereo unspecified)	2.089%	10.05%
CCS(=O)(=O)c1ccccc1C(=O)NCc1ccnc(N(C)C)c1	5.263%	-21.11%
Cn1cc(-c2cnc(N3CCOCC3)nc2)cc1C(=O)O	15.24%	7.365%
CC(C)Cc1nnc(NC(=O)NC(CCO)c2cccs2)s1 (stereo unspecified)	20.44%	-15.61%
CCCNc1ncc(-c2cc(C3CC3)nc(N)c2C#N)cn1	-25.5%	4.231%
[H][C@@]12CCN(C(=O)OCc3ccccc3)C[C@@]1([H])OC(CO)C2 (stereo partly specified)	-	11.32%
Cc1noc(C)c1CN(C)CC1CC(C2CCCCC2)=NO1 (stereo unspecified)	-3.377%	9.006%
CCOC(=O)[C@@H]1[C@@H](c2ccccc2)CN2CCN(C(=O)C3CC3)C[C@H]12	-0.274%	-
COCCOc1ccc(C(=O)N2CCCC(n3cncn3)C2)cn1 (stereo unspecified)	11.22%	-6.974%
Cc1ccc(N2CCCC(NCc3ccc(C)o3)C2)nn1 (stereo unspecified)	11.11%	2.349%
Cn1c(-c2cc3n(n2)CCCN(CC(=O)O)C3)nc2ccccc21	11.04%	-12.5%
Cc1cccc(N2CCC(N3CCCC4(CN(C)C(=O)O4)C3)CC2)c1C (stereo unspecified)	16.54%	-1.385%
CCNc1cc2c(nn1)CCN(C(=O)c1cc3ccccc3[nH]c1=O)C2	19.61%	15.37%
COCc1c(Br)cccc1NC(=O)CC(F)(F)F	13.07%	-14.81%
CC1N(c2cnn(C)c2)C(=O)COC12CCN(CC1CC1)CC2.O=C(O)C(F)(F)F (stereo unspecified)	-	1.958%
O=C(NCc1ccc(Cl)cc1)C1=NOC2(CCNC2)C1 (stereo unspecified)	7.19%	-
CN(CCCc1cnn(C)c1)C(=O)C1CCOC1 (stereo unspecified)	5.419%	-14.16%
O=C(c1ccco1)N1CCn2cc(CN3CCCC3)nc2C1	10.95%	-26.83%
Cc1nnc(CCNC(=O)C2CC(=O)N(C(C)(C)C)C2)s1 (stereo unspecified)	10.66%	-6.11%
CCC(C)(C)NC(=O)c1nnn(-c2cccc3c2CCN(C)C3)c1C	2.122%	-25.4%
CSc1ccc(CNc2n[nH]c(C)n2)cc1	0.9009%	10.38%
Cc1cccc(CCNC(=O)CCS(=O)(=O)C2CCCC2)c1	6.597%	20.03%
c1ccc(NC[C@@H]2CCC[C@@H]3CN(Cc4csnn4)C[C@@H]32)nc1	14.78%	-
CCc1ccc2nc(C)cc(C(=O)NC[C@@H]3CCNC[C@H]3O)c2c1	17.22%	-196%
Cc1cnn(CC2CCCCN2C(=O)c2ccc3c(c2)COC3)c1 (stereo unspecified)	17.68%	7.591%
Cc1ccccc1SC1CCN(C(=O)C2CNC(=O)N2)CC1 (stereo unspecified)	9.6%	8.936%
N#Cc1ccccc1CN1CCCCC1Cn1cncn1 (stereo unspecified)	9.804%	19.63%
CCC(=O)N1CCC2(CC1)CN(CCO)Cc1ccccc12	5.753%	-

The last 5 entries again:

| structure | A | B |
|---|---|---|
| `CCc1ccc2nc(C)cc(C(=O)NC[C@@H]3CCNC[C@H]3O)c2c1` | 17.22% | -196% |
| `Cc1cnn(CC2CCCCN2C(=O)c2ccc3c(c2)COC3)c1` (stereo unspecified) | 17.68% | 7.591% |
| `Cc1ccccc1SC1CCN(C(=O)C2CNC(=O)N2)CC1` (stereo unspecified) | 9.6% | 8.936% |
| `N#Cc1ccccc1CN1CCCCC1Cn1cncn1` (stereo unspecified) | 9.804% | 19.63% |
| `CCC(=O)N1CCC2(CC1)CN(CCO)Cc1ccccc12` | 5.753% | - |